{
  "source": "the supplement of paper PMC10338343",
  "note": "± gives the standard deviation. This is a selection; strong and weak results do not stand in their true shares. Many entries were measured with a wide error.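 Note: 1 nM active piRISC with 0.1 nM target library at 33 °C single turnover.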",
  "data": [
    {"system": "MIWI (PIWIL1) piRISC loaded with piRNA #1 (30 nt)", "assay": "pre-steady-state target cleavage rate (min^-1); MIWI and MILI are mouse PIWI proteins and EfPiwi is from a freshwater sponge; tags in brackets are library labels; higher = faster piRNA-guided slicing of the target", "settings": "guide: piRNA #1 5'p-UGAGGUAGUAGGUUGUAUAGUAUCCAGAGG; auxiliary factor: 500 nM mouse GTSF1", "method_in_brief": "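Three pooled Cleave-'n-Seq trials supplied the data, with k3 capped at 0.0001 min^-1. In each, […] transcribed, DNA-blocked target RNA library and 1 nM active affinity-purified piRISC with one synthetic guide reacted in HEPES–potassium acetate buffer at 33 °C for 0–8 or 0–960 min, with or without 500 nM GTSF1 partner protein. Uncleaved targets were sequenced and normalised to depth and to weakly complementary targets. A burst-and-steady-state fit provided the pre-steady-state cleavage rate.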", "values": [
      {"sequence": "GGAGACGAUACUAUACAACCUAUACCUCA", "pre-steady-state target cleavage rate": "0.0012 ± 0.0061"},
      {"sequence": "GCUCUGCAUACAAUACAACCUACUACCUCA", "pre-steady-state target cleavage rate": "1.82 ± 0.13"},
      {"sequence": "GGAGACCUAUGAUAACAACCUACUACCUCCA", "pre-steady-state target cleavage rate": "0.00127 ± 0.0037"},
      {"sequence": "GGAGACCUAUGAUAUGACCUACUACCUCA", "pre-steady-state target cleavage rate": "0.000341 ± 0.0078"},
      {"sequence": "GGUCUGGAUACUAUCCAACCUACUACCUCA", "pre-steady-state target cleavage rate": "1.96 ± 0.14"},
      {"sequence": "CGCUCUGGAUACUAUACAACCUACUACCUCA", "pre-steady-state target cleavage rate": "2.27 ± 0.14"},
      {"sequence": "CCUCUGGAUACUAUACAACCUACUUACCUCA", "pre-steady-state target cleavage rate": "2.2 ± 0.14"},
      {"sequence": "GGUCUGGAUAGUAUACAACCUACUACCUGA", "pre-steady-state target cleavage rate": "0.248 ± 0.041"},
      {"sequence": "GGACUGCUUACUAUACAACCUACUACCUCA", "pre-steady-state target cleavage rate": "1.54 ± 0.14"},
      {"sequence": "GGAGACCUAUGUAUUCAACCUACUACCACA", "pre-steady-state target cleavage rate": "0.000402 ± 0.0081"},
      {"sequence": "GGAGACCUAUGAUAAUCAACCUACUACCUCA", "pre-steady-state target cleavage rate": "0.000847 ± 0.0049"},
      {"sequence": "GGAGACCUAUGUAUACAAUCUACUACCUCA", "pre-steady-state target cleavage rate": "0.0144 ± 0.0036"},
      {"sequence": "GCUCAGGAUACUAUACAUCCUACUACCUCA", "pre-steady-state target cleavage rate": "1.85 ± 0.099"},
      {"sequence": "GCUCUGUGAUACUAUACAACCUACUACCUCA", "pre-steady-state target cleavage rate": "1.81 ± 0.11"},
      {"sequence": "GGUCUGGAUACUAUAGAACCUACUAGCUCA", "pre-steady-state target cleavage rate": "0.00019 ± 0.02"},
      {"sequence": "CCUUGGAUACUAUACAACCUACUACCUCA", "pre-steady-state target cleavage rate": "2.26 ± 0.14"},
      {"sequence": "CCUCUGCAUACUAUACAACCUACUACCACA", "pre-steady-state target cleavage rate": "2.37 ± 0.19"},
      {"sequence": "GGUCUGGAUACUAUACAACCUACAACGUCA", "pre-steady-state target cleavage rate": "0.00169 ± 0.0036"},
      {"sequence": "CCUCUGGAUAAUAUACAACCUACUACCUCA", "pre-steady-state target cleavage rate": "2.06 ± 0.12"},
      {"sequence": "GGAGACCUAUGAUUACAACCUACUACCUCA [g2:g17:cont:t1A]", "pre-steady-state target cleavage rate": "0.00172 ± 0.0055"},
      {"sequence": "GGUCUGGAUACUAUACAACCUAGUUCCUCA", "pre-steady-state target cleavage rate": "0.000962 ± 0.0052"},
      {"sequence": "GGAGACCUAUGAUAACAACCUACUGCCUCA", "pre-steady-state target cleavage rate": "0.000456 ± 0.013"},
      {"sequence": "GCUCUGGAUACUAUACAACCUACGACCUCA", "pre-steady-state target cleavage rate": "1.22 ± 0.083"},
      {"sequence": "GCUCUGGAUAAUAUACAACCUACUACCUCA", "pre-steady-state target cleavage rate": "2.07 ± 0.13"},
      {"sequence": "GGACUGGAUACUAUACAACCUAGUACGUCA", "pre-steady-state target cleavage rate": "0.00245 ± 0.0032"},
      {"sequence": "GCUCUGGAUACUAUACAACGAUCUACCUCA", "pre-steady-state target cleavage rate": "0.000946 ± 0.011"},
      {"sequence": "CCUCUGGAUACUAUACAACCUACUUCCACA", "pre-steady-state target cleavage rate": "0.337 ± 0.05"},
      {"sequence": "GGUCACCAUACUAUACAACCUACUACCUCA", "pre-steady-state target cleavage rate": "1.77 ± 0.11"},
      {"sequence": "CCUCUGGAUACUAUACAACCUACUACCUCC [g2:g30:cont:t1C]", "pre-steady-state target cleavage rate": "2.18 ± 0.14"},
      {"sequence": "GGAGACCUAUGAUAACAAGCUACUUCCUCA", "pre-steady-state target cleavage rate": "0.00013 ± 0.026"},
      {"sequence": "GGAGACCUAUGAUAUGUUGCUACAUGCUCA", "pre-steady-state target cleavage rate": "0.00171 ± 0.0048"},
      {"sequence": "GGUUGGAUACUAUACAACCUACUACCUCA", "pre-steady-state target cleavage rate": "1.78 ± 0.1"},
      {"sequence": "GGUCUGGAUACUAUACAACCUACUACCUCCA", "pre-steady-state target cleavage rate": "2.06 ± 0.12"},
      {"sequence": "GGACUGGUUACUAUACAACCUACUACCUCA", "pre-steady-state target cleavage rate": "1.65 ± 0.13"},
      {"sequence": "GGAGACCUAUGAAUACAACCUACUACCUUCA", "pre-steady-state target cleavage rate": "0.00113 ± 0.0034"},
      {"sequence": "GGACUGGAUACUAUACAACGCUACUACCUCA", "pre-steady-state target cleavage rate": "0.000331 ± 0.019"},
      {"sequence": "GGAGACCUAUGAUAGCAACCUACUACCUCA", "pre-steady-state target cleavage rate": "0.000286 ± 0.0082"},
      {"sequence": "GCCUGGAUACUAUACAACCUACUACCUCA", "pre-steady-state target cleavage rate": "1.87 ± 0.11"},
      {"sequence": "GGUCUGGAUACUAUACAACGUUCUACCUCA", "pre-steady-state target cleavage rate": "0.117 ± 0.014"},
      {"sequence": "GGAGACCUAUCAAUUCAACCUACUACCUCA", "pre-steady-state target cleavage rate": "0.000639 ± 0.0064"}
    ]}
  ]
}
